Measured values: patent US20210253711A1
Results are given in words; binding and its absence hold for the method and conditions named. Some binding calls cover weakened binding; strength is not graded here.

What was measured:
Recombinant MICB protein [1] = molecular target: T1, Recombinant MICB protein (UniProt Q29980); test: ELISA, antigen coated on the plate
T1 sequence (looked up): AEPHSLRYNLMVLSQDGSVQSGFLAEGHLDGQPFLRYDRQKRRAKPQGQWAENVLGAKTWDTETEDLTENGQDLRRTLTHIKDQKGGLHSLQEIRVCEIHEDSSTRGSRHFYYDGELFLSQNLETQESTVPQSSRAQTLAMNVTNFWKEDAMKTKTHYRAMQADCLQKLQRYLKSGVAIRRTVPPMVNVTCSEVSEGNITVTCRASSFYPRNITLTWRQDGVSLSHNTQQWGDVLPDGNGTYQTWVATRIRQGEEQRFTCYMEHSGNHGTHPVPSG

Recombinant MICB protein [2] = molecular target: T1, Recombinant MICB protein; test: ELISA, coated MICB (100 ng/well), goat anti-mouse IgG-HRP, OD 450 nm

B1: 16F10.C12 (antibody, V domains shown)
VH: EVQLQESGPGLVAPSQSLSITCTVSGFSLTAFGVNWVRQPPGKGLEWLGMIWGDGNTDYNSTLRSRLSISKDNSKSQVFLKLNSLQTDDTARYFCARETYYGNYAGLGYWGQGTLVTVSA
VL: QIVLTQSPAIMSASIGERVTMTCTASSSVSSNYLHWYQQKPRSSPKLWIYTTSNLASGVPTRFSGSGSGTSYSLTISSMEAEDAATYYCHQFHRSPFTFGSGTKLEIK
- binding (Recombinant MICB protein [1]): binds
- binding (Recombinant MICB protein [2]): binds

B2: 3F9.E4 (antibody, V domains shown)
VH: EVQLQESGEGLVKPGGSLKLSCAASGFTFSNYAMSWVRQTPEKRLEWVAYISPGGDYIYYADTVKGRFTISRDNARNTLYLQMSSLKSEDTAMYYCTTDRRHYGSYAMDYWGQGISVTVSS
VL: DIVMTQAAPSVPVTPGESVSISCRSSKSLLHSNGNTYLYWFLQRPGQSPQLLIYRMSNLASGVPDRFSGSGSGTAFTLRISRVEAEDVGVYYCMQHLEYPFTFGSGTKLEIK
- binding (Recombinant MICB protein [1]): binds
- binding (Recombinant MICB protein [2]): binds
